{"sequences": {"note": "By UniProt entry, the sequences of proteins in these tests, tags left out.", "UniProt Q8TDV5, whole entry": "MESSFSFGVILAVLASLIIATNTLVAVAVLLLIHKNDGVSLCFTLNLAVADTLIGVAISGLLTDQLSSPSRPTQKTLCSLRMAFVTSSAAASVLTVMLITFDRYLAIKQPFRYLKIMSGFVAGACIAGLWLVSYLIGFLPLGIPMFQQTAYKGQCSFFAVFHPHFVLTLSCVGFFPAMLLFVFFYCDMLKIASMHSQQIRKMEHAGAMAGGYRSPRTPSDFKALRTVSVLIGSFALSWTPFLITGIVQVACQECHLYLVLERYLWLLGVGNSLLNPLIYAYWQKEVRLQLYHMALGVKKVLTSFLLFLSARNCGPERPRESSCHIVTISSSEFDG"}, "source": "patent US8334288B2", "about": "“4-phenoxymethylpiperidines as modulators of GPR119 activity” (IRM LLC, priority 2008, dated 2012)", "biological_target": "human GPR119 (Homo sapiens, UniProt Q8TDV5)", "assay": "Cyclic AMP assay in stable cell line (HTRF, Flp-In-CHO-hGPR119 cells)", "details": "read-out: CHO-hGPR119 cells (EC50 − nM), increase in intracellular cAMP, 30 minutes at 37° C., 1 mM IBMX", "description": "Flp-In-CHO cells (Invitrogen, Cat. #R758-07) are maintained in Ham's F12 medium supplemented with 10% fetal bovine serum, 1% antibiotic mixture and 2 mM L-glutamine. The cells are transfected with a DNA mixture containing human GPR119 in pcDNA5/FRT vector and the pOG44 vector (1:9) using Fugene6 (Roche), according to the manufacturer's instruction. After 48 h, the medium is changed to medium supplemented with 400 μg/ml hygromycin B to initiate the selection of stably transfected cells.\nTo test the activity of compounds of the invention, Flp-In-CHO-hGPR119 cells are harvested and resuspended in DMEM plus 3% lipid-depleted fetal bovine serum. Forth μl of cells are plated in 384 well plates at a density of 15,000 cells/well. IBMX (3-isobutyl-1-methyl-xanthine) is added to the cells to a final concentration of 1 mM, followed by the addition of 500 nl of the compound to be tested. The cells are incubated at 37° C. for 30 minutes. Equal volume (20 μl) of the HTRF reagents, anti-cAMP-Cryptate and cAMP-XL665, are added to the cells. The plates are incubated at rt for 1 h and read on a HTRF reader according to the manufacturer's instruction.", "note": "The match of structure and compound is tentative.", "data": [{"smiles": "CCc1cnc(N2CCC(COc3c(F)cc(-c4ccc(C(=O)N(C)C)nc4)cc3F)CC2)nc1", "values": [{"measurement": "EC50", "result": 4, "unit": "nM"}]}]}
